# Reference: the supplement of paper PMC10689618
# The list shows a part of the results. Single values are uncertain, as repeats are few or missing.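 Primary human fetal astrocytes engulfed labelled rat cortical synaptosomes, measured as a red/green ratio corrected for calcein live-cell signal and scaled to the plate median. Toxicity meant calcein falling over 30%; decreased phagocytosis meant below 70% of median above 5 µM.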
# System: Human fetal astrocytes
# Test: synaptosome phagocytosis (pHrodo/calcein intensity ratio) relative to plate median of data wells; higher = more phagocytosis
# Settings: 11.11 µM; 24 h
row,SMILES,synaptosome phagocytosis [%]
1,CC(C(=O)O)c1ccc(C(=O)c2cccs2)cc1 (stereo not drawn),104
2,CN1CC(=O)NC1=N,105
3,C=C[C@@H](C1=CC(=O)C(OC)=C(OC)C1=O)c1ccccc1,55.7
4,C[C@]12CCC(=O)C=C1CC[C@@H]1[C@@H]2[C@@H](O)C[C@@]2(C)[C@H]1CC[C@]2(O)C(=O)COP(=O)(O)O,125
5,C[N+](C)(C)C[C@H](O)CC(=O)[O-],115
6,C[C@H]1COC2=C1C(=O)C(=O)c1c2ccc2c1CCCC2(C)C,101
7,NC[C@H]1CC[C@H](C(=O)O)CC1,90
8,COc1ccc(-c2cc(=O)c3c(O)cc(OC)c(OC)c3o2)c(OC)c1,101
9,COc1cc(O)c(C(C)=O)c(O)c1,97.1
10,COc1ccc([C@H]2Oc3cc(OC)cc(OC)c3C[C@H]2O)cc1,100
11,O=C(O)[C@H](O)[C@@H](O)[C@H](O[C@@H]1O[C@H](CO)[C@H](O)[C@H](O)[C@H]1O)[C@H](O)CO,108
12,CCOc1ccc(NC(=O)CC(C)O)cc1 (stereo not drawn),139
13,Cc1ccc(S(=O)(=O)NC(=O)NN2CCCCCC2)cc1 [Tolazamide],120
14,c1ccc(CN(CC2=NCCN2)c2ccccc2)cc1,117
15,CC(C)(C)NCC(O)c1cc(O)cc(O)c1 (stereo not drawn),94.4
16,CC(C)(Oc1ccc(CCNC(=O)c2ccc(Cl)cc2)cc1)C(=O)O,118
17,O=C(O)CS,108
18,NC(=O)N1c2ccccc2CC(=O)c2ccccc21 [Trileptal],133
19,CC(C)=CCC[C@@H](C)[C@@H]1CC[C@]2(C)C3=C(CC[C@@]12C)[C@@]1(C)CC[C@H](O)C(C)(C)[C@@H]1CC3,136
20,COc1cc(C)c(C(=O)Oc2cc(C)c(C(=O)O)c(O)c2C)c(OC)c1C,94.5

row,SMILES,synaptosome phagocytosis [%]
1,CON,117
2,O=C(O)Cc1cc(I)c(Oc2ccc(O)c(I)c2)c(I)c1,113
3,CC(=O)Oc1cc(OC(C)=O)c2c(c1)O[C@H](c1ccc(OC(C)=O)c(OC(C)=O)c1)[C@H](OC(C)=O)C2,98.3
4,Cc1occc(=O)c1O,99.3
5,CC(=O)C1CCC2C3CC=C4CC(OS(=O)(=O)O)CCC4(C)C3CCC12C (stereo not drawn),134
6,CC(=O)NCCCCCC(=O)O,71.5
7,c1coc(CNc2ncnc3[nH]cnc23)c1,86.3
8,CC(=O)Nc1ccc(S(=O)(=O)c2ccc(NC(C)=O)cc2)cc1,107
9,O=C(O)CCNC(=O)c1ccccc1,139
10,CC1(C)S[C@@H]2[C@H](NC(=O)[C@H](N)c3ccc(O)cc3)C(=O)N2[C@H]1C(=O)O,98.1
11,CC(=O)Oc1cc(OC(C)=O)c2c(c1)O[C@H](c1ccc(OC(C)=O)c(OC(C)=O)c1)[C@@H](OC(C)=O)C2,91
12,COCCc1ccc(OCC(O)CNC(C)C)cc1 (stereo not drawn),72.2
13,O=C(O)C(S)C(S)C(=O)O (stereo not drawn),104
14,O=c1[nH]cnc2c1ncn2[C@@H]1O[C@H](CO)[C@@H](O)[C@H]1O,104
15,CN(C(=O)CN(CCO)CC(=O)N(C)C(C)(C)Cc1ccccc1)C(C)(C)Cc1ccccc1,144
16,CC(C)C[C@@H]1NC(=O)[C@H](CCCN)NC(=O)[C@H](C(C)C)NC(=O)[C@H](Cc2ccc(O)cc2)N[C@@H](CCC(=O)O)C(=O)N[C@@H](CC(N)=O)C(=O)[C@@H](Cc2ccccc2)NC(=O)[C@H](Cc2ccccc2)NC(=O)[C@@H]2CCCN2C(=O)[C@@H](Cc2ccccc2)NC1=O,43.4
17,COc1cc2c(cc1OC)-c1c(oc3cc(O)cc(O)c3c1=O)CO2,92.5
18,"Oc1ccc(/C=C/c2cc(O)cc(O)c2)cc1 [5-[2-(4-hydroxyphenyl)vinyl]-1,3-benzenediol]",114
19,CC(=O)OC1CCC2(C)C3=C(CC[C@H]2C1(C)C)[C@@]1(C)CC[C@@H]([C@@H](C)CCC=C(C)C)[C@]1(C)CC3 (stereo partly drawn),143

# Same assay, conditions: 22.22 µM; 24 h
row,SMILES,synaptosome phagocytosis [%]
1,CC(C(=O)O)c1ccc(C(=O)c2cccs2)cc1 (stereo not drawn),112
2,CN1CC(=O)NC1=N,45.8
3,C=C[C@@H](C1=CC(=O)C(OC)=C(OC)C1=O)c1ccccc1,8.9
4,C[C@]12CCC(=O)C=C1CC[C@@H]1[C@@H]2[C@@H](O)C[C@@]2(C)[C@H]1CC[C@]2(O)C(=O)COP(=O)(O)O,114
5,C[N+](C)(C)C[C@H](O)CC(=O)[O-],101
6,C[C@H]1COC2=C1C(=O)C(=O)c1c2ccc2c1CCCC2(C)C,115
7,NC[C@H]1CC[C@H](C(=O)O)CC1,106
8,COc1ccc(-c2cc(=O)c3c(O)cc(OC)c(OC)c3o2)c(OC)c1,121
9,COc1cc(O)c(C(C)=O)c(O)c1,130
10,COc1ccc([C@H]2Oc3cc(OC)cc(OC)c3C[C@H]2O)cc1,90.8
11,O=C(O)[C@H](O)[C@@H](O)[C@H](O[C@@H]1O[C@H](CO)[C@H](O)[C@H](O)[C@H]1O)[C@H](O)CO,116
12,CCOc1ccc(NC(=O)CC(C)O)cc1 (stereo not drawn),147
13,Cc1ccc(S(=O)(=O)NC(=O)NN2CCCCCC2)cc1 [Tolazamide],132
14,c1ccc(CN(CC2=NCCN2)c2ccccc2)cc1,103
15,CC(C)(C)NCC(O)c1cc(O)cc(O)c1 (stereo not drawn),113
16,CC(C)(Oc1ccc(CCNC(=O)c2ccc(Cl)cc2)cc1)C(=O)O,89.1
17,O=C(O)CS,100
18,NC(=O)N1c2ccccc2CC(=O)c2ccccc21 [Trileptal],120
19,CC(C)=CCC[C@@H](C)[C@@H]1CC[C@]2(C)C3=C(CC[C@@]12C)[C@@]1(C)CC[C@H](O)C(C)(C)[C@@H]1CC3,113
20,COc1cc(C)c(C(=O)Oc2cc(C)c(C(=O)O)c(O)c2C)c(OC)c1C,130

row,SMILES,synaptosome phagocytosis [%]
1,CON,71.9
2,O=C(O)Cc1cc(I)c(Oc2ccc(O)c(I)c2)c(I)c1,105
3,CC(=O)Oc1cc(OC(C)=O)c2c(c1)O[C@H](c1ccc(OC(C)=O)c(OC(C)=O)c1)[C@H](OC(C)=O)C2,107
4,Cc1occc(=O)c1O,145
5,CC(=O)C1CCC2C3CC=C4CC(OS(=O)(=O)O)CCC4(C)C3CCC12C (stereo not drawn),106
6,CC(=O)NCCCCCC(=O)O,103
7,c1coc(CNc2ncnc3[nH]cnc23)c1,141
8,CC(=O)Nc1ccc(S(=O)(=O)c2ccc(NC(C)=O)cc2)cc1,103
9,O=C(O)CCNC(=O)c1ccccc1,90.6
10,CC1(C)S[C@@H]2[C@H](NC(=O)[C@H](N)c3ccc(O)cc3)C(=O)N2[C@H]1C(=O)O,100
11,CC(=O)Oc1cc(OC(C)=O)c2c(c1)O[C@H](c1ccc(OC(C)=O)c(OC(C)=O)c1)[C@@H](OC(C)=O)C2,117
12,COCCc1ccc(OCC(O)CNC(C)C)cc1 (stereo not drawn),84.4
13,O=C(O)C(S)C(S)C(=O)O (stereo not drawn),90.6
14,O=c1[nH]cnc2c1ncn2[C@@H]1O[C@H](CO)[C@@H](O)[C@H]1O,145
15,CN(C(=O)CN(CCO)CC(=O)N(C)C(C)(C)Cc1ccccc1)C(C)(C)Cc1ccccc1,112
16,CC(C)C[C@@H]1NC(=O)[C@H](CCCN)NC(=O)[C@H](C(C)C)NC(=O)[C@H](Cc2ccc(O)cc2)N[C@@H](CCC(=O)O)C(=O)N[C@@H](CC(N)=O)C(=O)[C@@H](Cc2ccccc2)NC(=O)[C@H](Cc2ccccc2)NC(=O)[C@@H]2CCCN2C(=O)[C@@H](Cc2ccccc2)NC1=O,0
17,COc1cc2c(cc1OC)-c1c(oc3cc(O)cc(O)c3c1=O)CO2,105
18,"Oc1ccc(/C=C/c2cc(O)cc(O)c2)cc1 [5-[2-(4-hydroxyphenyl)vinyl]-1,3-benzenediol]",99.3
19,CC(=O)OC1CCC2(C)C3=C(CC[C@H]2C1(C)C)[C@@]1(C)CC[C@@H]([C@@H](C)CCC=C(C)C)[C@]1(C)CC3 (stereo partly drawn),87.1
